In the assay the target is endogenous NBAS tagged with an eGFP/3xFlag tag at its N terminus (human) (UniProt A2RRP1). Description: affinity purification with mass spectrometry; anti-GFP immunoprecipitation of endogenously eGFP/3xFlag-tagged NBAS, interacting proteins found by mass spectrometry; independent of the presence of RNA.

Sequences of proteins named here, by UniProt entry; tags and fusion partners are left off.
UniProt A2RRP1: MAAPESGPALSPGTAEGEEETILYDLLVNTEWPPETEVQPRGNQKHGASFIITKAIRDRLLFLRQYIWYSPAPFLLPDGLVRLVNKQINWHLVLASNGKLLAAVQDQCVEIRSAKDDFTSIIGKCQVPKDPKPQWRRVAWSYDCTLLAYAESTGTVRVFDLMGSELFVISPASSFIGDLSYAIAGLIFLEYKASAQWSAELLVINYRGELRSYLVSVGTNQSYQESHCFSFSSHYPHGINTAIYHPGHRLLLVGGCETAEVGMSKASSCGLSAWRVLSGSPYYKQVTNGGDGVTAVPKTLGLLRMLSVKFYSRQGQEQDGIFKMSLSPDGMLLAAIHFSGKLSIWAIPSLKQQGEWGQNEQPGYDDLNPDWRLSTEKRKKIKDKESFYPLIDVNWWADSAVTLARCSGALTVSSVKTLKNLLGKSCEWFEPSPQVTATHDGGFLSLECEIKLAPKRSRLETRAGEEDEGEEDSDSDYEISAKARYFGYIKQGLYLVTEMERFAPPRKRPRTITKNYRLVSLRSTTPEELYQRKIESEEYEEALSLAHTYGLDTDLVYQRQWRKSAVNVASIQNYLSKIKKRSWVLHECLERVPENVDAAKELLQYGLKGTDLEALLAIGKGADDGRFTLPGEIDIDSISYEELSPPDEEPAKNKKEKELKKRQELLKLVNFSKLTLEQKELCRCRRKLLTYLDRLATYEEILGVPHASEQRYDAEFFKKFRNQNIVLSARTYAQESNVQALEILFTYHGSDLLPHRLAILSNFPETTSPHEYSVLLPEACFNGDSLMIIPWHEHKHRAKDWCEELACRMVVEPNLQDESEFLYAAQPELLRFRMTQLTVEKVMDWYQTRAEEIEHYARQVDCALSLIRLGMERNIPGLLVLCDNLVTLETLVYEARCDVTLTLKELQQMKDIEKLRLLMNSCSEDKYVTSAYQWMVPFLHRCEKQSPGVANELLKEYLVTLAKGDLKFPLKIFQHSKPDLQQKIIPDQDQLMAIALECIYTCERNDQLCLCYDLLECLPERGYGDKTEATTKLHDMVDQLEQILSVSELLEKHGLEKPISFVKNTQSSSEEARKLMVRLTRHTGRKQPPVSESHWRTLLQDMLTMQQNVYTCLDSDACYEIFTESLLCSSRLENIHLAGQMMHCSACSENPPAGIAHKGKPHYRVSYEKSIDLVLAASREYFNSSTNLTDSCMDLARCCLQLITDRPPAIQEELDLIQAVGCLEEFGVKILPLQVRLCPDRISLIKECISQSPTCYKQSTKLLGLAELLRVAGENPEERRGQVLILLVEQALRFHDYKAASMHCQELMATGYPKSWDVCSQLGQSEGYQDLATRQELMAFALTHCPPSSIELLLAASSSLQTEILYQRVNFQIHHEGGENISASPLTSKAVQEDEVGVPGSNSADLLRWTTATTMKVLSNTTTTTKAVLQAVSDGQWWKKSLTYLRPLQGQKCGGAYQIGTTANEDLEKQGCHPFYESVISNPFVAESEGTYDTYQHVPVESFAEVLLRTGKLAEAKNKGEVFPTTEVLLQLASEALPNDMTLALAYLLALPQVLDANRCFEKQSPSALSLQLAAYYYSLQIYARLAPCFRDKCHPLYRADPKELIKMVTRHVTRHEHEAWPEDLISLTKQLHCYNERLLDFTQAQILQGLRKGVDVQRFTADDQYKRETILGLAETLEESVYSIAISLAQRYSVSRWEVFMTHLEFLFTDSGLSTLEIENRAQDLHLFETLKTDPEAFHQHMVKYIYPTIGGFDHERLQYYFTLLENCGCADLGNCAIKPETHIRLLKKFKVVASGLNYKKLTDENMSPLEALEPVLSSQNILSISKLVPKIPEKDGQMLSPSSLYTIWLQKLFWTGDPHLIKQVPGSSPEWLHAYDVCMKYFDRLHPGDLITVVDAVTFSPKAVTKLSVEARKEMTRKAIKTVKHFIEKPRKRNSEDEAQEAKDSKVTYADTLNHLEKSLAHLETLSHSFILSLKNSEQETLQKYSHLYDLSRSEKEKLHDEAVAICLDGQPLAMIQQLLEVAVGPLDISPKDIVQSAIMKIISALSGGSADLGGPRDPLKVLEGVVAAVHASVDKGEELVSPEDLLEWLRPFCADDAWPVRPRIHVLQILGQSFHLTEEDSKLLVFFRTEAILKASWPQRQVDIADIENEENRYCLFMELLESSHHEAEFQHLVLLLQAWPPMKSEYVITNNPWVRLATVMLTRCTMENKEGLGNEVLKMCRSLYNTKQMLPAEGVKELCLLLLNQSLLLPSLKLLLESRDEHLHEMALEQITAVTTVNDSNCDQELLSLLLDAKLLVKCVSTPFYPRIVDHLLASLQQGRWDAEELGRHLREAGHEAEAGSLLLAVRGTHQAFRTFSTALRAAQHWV
UniProt P61619: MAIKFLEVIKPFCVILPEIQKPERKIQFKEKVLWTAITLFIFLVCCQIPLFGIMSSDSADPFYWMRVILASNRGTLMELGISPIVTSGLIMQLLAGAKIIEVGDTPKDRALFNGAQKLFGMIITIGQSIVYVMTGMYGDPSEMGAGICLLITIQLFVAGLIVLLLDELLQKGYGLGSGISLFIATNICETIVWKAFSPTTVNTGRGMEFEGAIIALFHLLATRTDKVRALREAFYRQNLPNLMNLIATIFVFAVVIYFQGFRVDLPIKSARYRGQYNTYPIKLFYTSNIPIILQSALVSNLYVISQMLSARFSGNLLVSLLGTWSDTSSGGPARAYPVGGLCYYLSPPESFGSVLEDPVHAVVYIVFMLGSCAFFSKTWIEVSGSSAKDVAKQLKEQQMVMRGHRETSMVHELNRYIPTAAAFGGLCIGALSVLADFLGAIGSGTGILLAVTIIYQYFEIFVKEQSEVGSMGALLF

No constants are given. Whether binding was seen depends on the method and setting. In cells and extracts the contact can be indirect. Here binding means that the protein was enriched with, or labelled near, the bait; the list need not be complete.

As to SEC61A1 (from UniProt P61619 1-476), the binding result was “binds”.

Values taken from paper PMC7397857.
